PMC5007451

Molecular target: T1, GST-Cep192 fragment (aa 1501–2040) (human) (UniProt Q8TEP8)
T1 sequence: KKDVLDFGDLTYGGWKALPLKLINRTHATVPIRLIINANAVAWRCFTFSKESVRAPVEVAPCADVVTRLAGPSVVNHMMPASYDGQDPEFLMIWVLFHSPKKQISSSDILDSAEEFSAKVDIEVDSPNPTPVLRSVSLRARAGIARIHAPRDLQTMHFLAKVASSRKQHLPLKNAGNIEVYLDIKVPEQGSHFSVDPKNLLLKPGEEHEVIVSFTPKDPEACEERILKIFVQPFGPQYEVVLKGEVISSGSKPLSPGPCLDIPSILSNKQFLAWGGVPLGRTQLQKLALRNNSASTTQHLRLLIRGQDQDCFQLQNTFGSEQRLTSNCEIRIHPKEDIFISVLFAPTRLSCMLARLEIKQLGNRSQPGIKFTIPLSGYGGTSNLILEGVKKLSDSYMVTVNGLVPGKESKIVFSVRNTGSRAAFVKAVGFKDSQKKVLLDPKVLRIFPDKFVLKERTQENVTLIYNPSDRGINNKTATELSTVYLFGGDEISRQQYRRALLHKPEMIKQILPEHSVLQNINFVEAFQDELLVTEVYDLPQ
Assay: pull-down; GST-Cep192 fragment kept on Glutathion sepharose beads, incubated with ~5 μg bacterially purified Cep295 fragment for 2 h at 4 °C in ice-cold lysis buffer; seven washes; SDS-PAGE, SimplyBlue Safe stain; both purified

binding: binds
Substance: Cep295 fragment (aa 1727–2204), bacterially purified (human) (domain or fragment)

These are yes or no findings as the source states them, for the method shown. Binding calls can cover weak binding; strength is not graded here. Sequences can lack the tags named with a protein.
